Assays:
[1] = tested on: Ehrlich ascites carcinoma; test: Preventive effect against the growth of Ehrlich ascites carcinoma (Method A); assay type: in vivo, mice; settings: footnote *5 in image; fits MTD/MED
From the text: It may be useful to prolong the survival time of warm-blood .animals, including human,.afflicted with tumors and/or minimize the growth of tumors in said animals. […] The compound of the present invention is also useful for the treatment of various other tumors such as prostate tumor, orchis tumor, ovary tumor, malignant lymphoma, leukemia, breast cancer and the like.

Leukemia L-1210 = test: Effect on life span of mice implanted with Leukemia L-1210 (Method B); assay type: in vivo; settings: ratio OD/ILS30; footnote *4 in image
Experimental: […] test compound was begun 24 hours after the inoculation of the leukemic cells and performed once a day for 5 days. The survival days of the treated mice were observed.

Row | Substance | Thera-peutic index [1] | Therapeutic index (OD/ILS30) (Leukemia L-1210)
1 | cis-Oxalato(2-aminomethylpyridine) platinum (II) [Compound 1] | 32 | 76.9
2 | cis-Dioxamato(2-aminomethylpyridine) platinum (II) [Compound 3] | – | 60.6
3 | cis-Malonato(2-aminomethylpyridine) platinum (II) [Compound 2] | 32 | 55.6

— patent publication EP0115929A1, “Novel organic platinum complex and process for the preparation thereof” (priority 1983, dated 1984)
